Drawing on patent US12729225B2, “Non-canonical SWI/SNF complex and uses thereof” (Dana-Farber Cancer Institute, Inc., priority 2018, dated 2026), this text covers Total and Unique for eleven molecules.

The data set deals with mSWI/SNF complexes. Briefly: mSWI/SNF complex purification with HA-tagged baits and mass spectrometry (peptide counts). Set-up: species or system human.
Where [1] appears, read: 293_HA-BRD7 bait purification, mass spectrometry, total peptides per co-purified protein.
Setting [2] is: 293_HA-BRD7 bait purification, mass spectrometry, unique peptides per co-purified protein.

B1: SURF6 (protein, UniProt O75683 1-361, looked up)
Surfeit locus protein 6: MASLLAKDAYLQSLAKKICSHSAPEQQARTRAGKTQGSETAGPPKKKRKKTQKKFRKREEKAAEHKAKSLGEKSPAASGARRPEAAKEEAAWASSSAGNPADGLATEPESVFALDVLRQRLHEKIQEARGQGSAKELSPAALEKRRRRKQERDRKKRKRKELRAKEKARKAEEATEAQEVVEATPEGACTEPREPPGLIFNKVEVSEDEPASKAQRRKEKRQRVKGNLTPLTGRNYRQLLERLQARQSRLDELRGQDEGKAQELEAKMKWTNLLYKAEGVKIRDDERLLQEALKRKEKRRAQRQRRWEKRTAGVVEKMQQRQDRRRQNLRRKKAARAERRLLRARKKGRILPQDLERAGLV
Under setting [1], B1 returned a Total of 4. Under setting [2], this molecule showed a Unique of 4.

B2: GTF2I (protein, UniProt P78347 2-998, looked up)
General transcription factor …: AQVAMSTLPVEDEESSESRMVVTFLMSALESMCKELAKSKAEVACIAVYETDVFVVGTERGRAFVNTRKDFQKDFVKYCVEEEEKAAEMHKMKSTTQANRMSVDAVEIETLRKTVEDYFCFCYGKALGKSTVVPVPYEKMLRDQSAVVVQGLPEGVAFKHPENYDLATLKWILENKAGISFIIKRPFLEPKKHVGGRVMVTDADRSILSPGGSCGPIKVKTEPTEDSGISLEMAAVTVKEESEDPDYYQYNIQAGPSETDDVDEKQPLSKPLQGSHHSSEGNEGTEMEVPAEDSTQHVPSETSEDPEVEVTIEDDDYSPPSKRPKANELPQPPVPEPANAGKRKVREFNFEKWNARITDLRKQVEELFERKYAQAIKAKGPVTIPYPLFQSHVEDLYVEGLPEGIPFRRPSTYGIPRLERILLAKERIRFVIKKHELLNSTREDLQLDKPASGVKEEWYARITKLRKMVDQLFCKKFAEALGSTEAKAVPYQKFEAHPNDLYVEGLPENIPFRSPSWYGIPRLEKIIQVGNRIKFVIKRPELLTHSTTEVTQPRTNTPVKEDWNVRITKLRKQVEEIFNLKFAQALGLTEAVKVPYPVFESNPEFLYVEGLPEGIPFRSPTWFGIPRLERIVRGSNKIKFVVKKPELVISYLPPGMASKINTKALQSPKRPRSPGSNSKVPEIEVTVEGPNNNNPQTSAVRTPTQTNGSNVPFKPRGREFSFEAWNAKITDLKQKVENLFNEKCGEALGLKQAVKVPFALFESFPEDFYVEGLPEGVPFRRPSTFGIPRLEKILRNKAKIKFIIKKPEMFETAIKESTSSKSPPRKINSSPNVNTTASGVEDLNIIQVTIPDDDNERLSKVEKARQLREQVNDLFSRKFGEAIGMGFPVKVPYRKITINPGCVVVDGMPPGVSFKAPSYLEISSMRRILDSAEFIKFTVIRPFPGLVINNQLVDQSESEGPVIQESAEPSQLEVPATEEIKETDGSSQIKQEPDPTW
With B2, the Total under setting [1] was 4. In addition, the Unique under setting [2] turned out to be 4.

B3: KRT10 (protein, UniProt P13645 1-584, looked up)
Keratin, type I cytoskeletal …: MSVRYSSSKHYSSSRSGGGGGGGGCGGGGGVSSLRISSSKGSLGGGFSSGGFSGGSFSRGSSGGGCFGGSSGGYGGLGGFGGGSFRGSYGSSSFGGSYGGIFGGGSFGGGSFGGGSFGGGGFGGGGFGGGFGGGFGGDGGLLSGNEKVTMQNLNDRLASYLDKVRALEESNYELEGKIKEWYEKHGNSHQGEPRDYSKYYKTIDDLKNQILNLTTDNANILLQIDNARLAADDFRLKYENEVALRQSVEADINGLRRVLDELTLTKADLEMQIESLTEELAYLKKNHEEEMKDLRNVSTGDVNVEMNAAPGVDLTQLLNNMRSQYEQLAEQNRKDAEAWFNEKSKELTTEIDNNIEQISSYKSEITELRRNVQALEIELQSQLALKQSLEASLAETEGRYCVQLSQIQAQISALEEQLQQIRAETECQNTEYQQLLDIKIRLENEIQTYRSLLEGEGSSGGGGRGGGSFGGGYGGGSSGGGSSGGGHGGGHGGSSGGGYGGGSSGGGSSGGGYGGGSSSGGHGGSSSGGYGGGSSGGGGGGYGGGSSGGGSSSGGGYGGGSSSGGHKSSSSGSVGESSSKGPRY
For the setting “293_HA-BRD7: HA-BRD7 bait purification, total peptide count per co-purified protein”, B3 displayed a Total of 31. Moreover, under “293_HA-BRD7: HA-BRD7 bait purification, unique peptide count per co-purified protein”, the Unique was determined as 25.

B4: PGAM5 (protein, UniProt Q96HS1 1-289, looked up)
Serine/threonine-protein …: MAFRQALQLAACGLAGGSAAVLFSAVAVGKPRAGGDAEPRPAEPPAWAGGARPGPGVWDPNWDRREPLSLINVRKRNVESGEEELASKLDHYKAKATRHIFLIRHSQYHVDGSLEKDRTLTPLGREQAELTGLRLASLGLKFNKIVHSSMTRAIETTDIISRHLPGVCKVSTDLLREGAPIEPDPPVSHWKPEAVQYYEDGARIEAAFRNYIHRADARQEEDSYEIFICHANVIRYIVCRALQFPPEGWLRLSLNNGSITHLVIRPNGRVALRTLGDTGFMPPDKITRS
B4 registered a Total under setting [1] of 4. Also, under setting [2], the Unique came to 4.

B5: HADH (protein, UniProt Q16836 13-314, looked up)
Hydroxyacyl-coenzyme A …: SSSSTASASAKKIIVKHVTVIGGGLMGAGIAQVAAATGHTVVLVDQTEDILAKSKKGIEESLRKVAKKKFAENLKAGDEFVEKTLSTIATSTDAASVVHSTDLVVEAIVENLKVKNELFKRLDKFAAEHTIFASNTSSLQITSIANATTRQDRFAGLHFFNPVPVMKLVEVIKTPMTSQKTFESLVDFSKALGKHPVSCKDTPGFIVNRLLVPYLMEAIRLYERGDASKEDIDTAMKLGAGYPMGPFELLDYVGLDTTKFIVDGWHEMDAENPLHQPSPSLNKLVAENKFGKKTGEGFYKYK
Consider B5, for which the Total under setting [1] came out at 5. Also, under setting [2], the Unique is reported as 3.

B6: U2AF1 (protein, UniProt Q01081 2-240, looked up)
Splicing factor U2AF 35 kDa …: AEYLASIFGTEKDKVNCSFYFKIGACRHGDRCSRLHNKPTFSQTIALLNIYRNPQNSSQSADGLRCAVSDVEMQEHYDEFFEEVFTEMEEKYGEVEEMNVCDNLGDHLVGNVYVKFRREEDAEKAVIDLNNRWFNGQPIHAELSPVTDFREACCRQYEMGECTRGGFCNFMHLKPISRELRRELYGRRRKKHRSRSRSRERRSRSRDRGRGGGGGGGGGGGGRERDRRRSRDRERSGRF
For the molecule B6, the Total under setting [1] is recorded as 15. The molecule also registered a Unique under setting [2] of 3.

B7: SUCLA2 (protein, UniProt Q9P2R7 53-463, looked up)
Succinate--CoA ligase …: LSLHEYMSMELLQEAGVSVPKGYVAKSPDEAYAIAKKLGSKDVVIKAQVLAGGRGKGTFESGLKGGVKIVFSPEEAKAVSSQMIGKKLFTKQTGEKGRICNQVLVCERKYPRREYYFAITMERSFQGPVLIGSSHGGVNIEDVAAESPEAIIKEPIDIEEGIKKEQALQLAQKMGFPPNIVESAAENMVKLYSLFLKYDATMIEINPMVEDSDGAVLCMDAKINFDSNSAYRQKKIFDLQDWTQEDERDKDAAKANLNYIGLDGNIGCLVNGAGLAMATMDIIKLHGGTPANFLDVGGGATVHQVTEAFKLITSDKKVLAILVNIFGGIMRCDVIAQGIVMAVKDLEIKIPVVVRLQGTRVDDAKALIADSGLKILACDDLDEAARMVVKLSEIVTLAKQAHVDVKFQLPI
B7 showed a Total under setting [1] of 4. The molecule further registered a Unique under setting [2] of 4.

B8: STT3A (protein, UniProt P46977 1-705, looked up)
Dolichyl-diphosphooligosacchar …: MTKFGFLRLSYEKQDTLLKLLILSMAAVLSFSTRLFAVLRFESVIHEFDPYFNYRTTRFLAEEGFYKFHNWFDDRAWYPLGRIIGGTIYPGLMITSAAIYHVLHFFHITIDIRNVCVFLAPLFSSFTTIVTYHLTKELKDAGAGLLAAAMIAVVPGYISRSVAGSYDNEGIAIFCMLLTYYMWIKAVKTGSICWAAKCALAYFYMVSSWGGYVFLINLIPLHVLVLMLTGRFSHRIYVAYCTVYCLGTILSMQISFVGFQPVLSSEHMAAFGVFGLCQIHAFVDYLRSKLNPQQFEVLFRSVISLVGFVLLTVGALLMLTGKISPWTGRFYSLLDPSYAKNNIPIIASVSEHQPTTWSSYYFDLQLLVFMFPVGLYYCFSNLSDARIFIIMYGVTSMYFSAVMVRLMLVLAPVMCILSGIGVSQVLSTYMKNLDISRPDKKSKKQQDSTYPIKNEVASGMILVMAFFLITYTFHSTWVTSEAYSSPSIVLSARGGDGSRIIFDDFREAYYWLRHNTPEDAKVMSWWDYGYQITAMANRTILVDNNTWNNTHISRVGQAMASTEEKAYEIMRELDVSYVLVIFGGLTGYSSDDINKFLWMVRIGGSTDTGKHIKENDYYTPTGEFRVDREGSPVLLNCLMYKMCYYRFGQVYTEAKRPPGFDRVRNAEIGNKDFELDVLEEAYTTEHWLVRIYKVKDLDNRGLSRT
Molecule B8 displayed a Total under setting [1] of 4. The same molecule displayed a Unique under setting [2] of 4.

B9: NUSAP1 (protein, UniProt Q9BXS6 1-441, looked up)
Nucleolar and …: MIIPSLEELDSLKYSDLQNLAKSLGLRANLRATKLLKALKGYIKHEARKGNENQDESQTSASSCDETEIQISNQEEAERQPLGHVTKTRRRCKTVRVDPDSQQNHSEIKISNPTEFQNHEKQESQDLRATAKVPSPPDEHQEAENAVSSGNRDSKVPSEGKKSLYTDESSKPGKNKRTAITTPNFKKLHEAHFKEMESIDQYIERKKKHFEEHNSMNELKQQPINKGGVRTPVPPRGRLSVASTPISQRRSQGRSCGPASQSTLGLKGSLKRSAISAAKTGVRFSAATKDNEHKRSLTKTPARKSAHVTVSGGTPKGEAVLGTHKLKTITGNSAAVITPFKLTTEATQTPVSNKKPVFDLKASLSRPLNYEPHKGKLKPWGQSKENNYLNQHVNRINFYKKTYKQPHLQTKEEQRKKREQERKEKKAKVLGMRRGLILAED
The molecule B9 displayed a Total under setting [1] of 4. Under setting [2], this molecule gave a Unique of 4.

B10: SHMT2 (protein, UniProt P34897 30-504, looked up)
Serine …: NAAQTQTGEANRGWTGQESLSDSDPEMWELLQREKDRQCRGLELIASENFCSRAALEALGSCLNNKYSEGYPGKRYYGGAEVVDEIELLCQRRALEAFDLDPAQWGVNVQPYSGSPANLAVYTALLQPHDRIMGLDLPDGGHLTHGYMSDVKRISATSIFFESMPYKLNPKTGLIDYNQLALTARLFRPRLIIAGTSAYARLIDYARMREVCDEVKAHLLADMAHISGLVAAKVIPSPFKHADIVTTTTHKTLRGARSGLIFYRKGVKAVDPKTGREIPYTFEDRINFAVFPSLQGGPHNHAIAAVAVALKQACTPMFREYSLQVLKNARAMADALLERGYSLVSGGTDNHLVLVDLRPKGLDGARAERVLELVSITANKNTCPGDRSAITPGGLRLGAPALTSRQFREDDFRRVVDFIDEGVNIGLEVKSKTAKLQDFKSFLLKDSETSQRLANLRQRVEQFARAFPMPGFDEH
As to B10, under setting [1], the Total amounted to 4. This molecule displayed a Unique under setting [2] of 4.

B11: SRP14 (protein, UniProt P37108 2-136, looked up)
Signal recognition particle …: VLLESEQFLTELTRLFQKCRTSGSVYITLKKYDGRTKPIPKKGTVEGFEPADNKCLLRATDGKKKISTVVSSKEVNKFQMAYSNLLRANMDGLKKRDKKNKTKKTKAAAAAAAAAPAAAATAPTTAATTAATAAQ
Under setting [1], B11 returned a Total of 4. Also, the Unique under setting [2] was 4.
